Data on 4 molecules can be found in paper PMC10954452.

Protein sequences, listed by entry. Tags and fused reporters are not part of them.
UniProt Q92793: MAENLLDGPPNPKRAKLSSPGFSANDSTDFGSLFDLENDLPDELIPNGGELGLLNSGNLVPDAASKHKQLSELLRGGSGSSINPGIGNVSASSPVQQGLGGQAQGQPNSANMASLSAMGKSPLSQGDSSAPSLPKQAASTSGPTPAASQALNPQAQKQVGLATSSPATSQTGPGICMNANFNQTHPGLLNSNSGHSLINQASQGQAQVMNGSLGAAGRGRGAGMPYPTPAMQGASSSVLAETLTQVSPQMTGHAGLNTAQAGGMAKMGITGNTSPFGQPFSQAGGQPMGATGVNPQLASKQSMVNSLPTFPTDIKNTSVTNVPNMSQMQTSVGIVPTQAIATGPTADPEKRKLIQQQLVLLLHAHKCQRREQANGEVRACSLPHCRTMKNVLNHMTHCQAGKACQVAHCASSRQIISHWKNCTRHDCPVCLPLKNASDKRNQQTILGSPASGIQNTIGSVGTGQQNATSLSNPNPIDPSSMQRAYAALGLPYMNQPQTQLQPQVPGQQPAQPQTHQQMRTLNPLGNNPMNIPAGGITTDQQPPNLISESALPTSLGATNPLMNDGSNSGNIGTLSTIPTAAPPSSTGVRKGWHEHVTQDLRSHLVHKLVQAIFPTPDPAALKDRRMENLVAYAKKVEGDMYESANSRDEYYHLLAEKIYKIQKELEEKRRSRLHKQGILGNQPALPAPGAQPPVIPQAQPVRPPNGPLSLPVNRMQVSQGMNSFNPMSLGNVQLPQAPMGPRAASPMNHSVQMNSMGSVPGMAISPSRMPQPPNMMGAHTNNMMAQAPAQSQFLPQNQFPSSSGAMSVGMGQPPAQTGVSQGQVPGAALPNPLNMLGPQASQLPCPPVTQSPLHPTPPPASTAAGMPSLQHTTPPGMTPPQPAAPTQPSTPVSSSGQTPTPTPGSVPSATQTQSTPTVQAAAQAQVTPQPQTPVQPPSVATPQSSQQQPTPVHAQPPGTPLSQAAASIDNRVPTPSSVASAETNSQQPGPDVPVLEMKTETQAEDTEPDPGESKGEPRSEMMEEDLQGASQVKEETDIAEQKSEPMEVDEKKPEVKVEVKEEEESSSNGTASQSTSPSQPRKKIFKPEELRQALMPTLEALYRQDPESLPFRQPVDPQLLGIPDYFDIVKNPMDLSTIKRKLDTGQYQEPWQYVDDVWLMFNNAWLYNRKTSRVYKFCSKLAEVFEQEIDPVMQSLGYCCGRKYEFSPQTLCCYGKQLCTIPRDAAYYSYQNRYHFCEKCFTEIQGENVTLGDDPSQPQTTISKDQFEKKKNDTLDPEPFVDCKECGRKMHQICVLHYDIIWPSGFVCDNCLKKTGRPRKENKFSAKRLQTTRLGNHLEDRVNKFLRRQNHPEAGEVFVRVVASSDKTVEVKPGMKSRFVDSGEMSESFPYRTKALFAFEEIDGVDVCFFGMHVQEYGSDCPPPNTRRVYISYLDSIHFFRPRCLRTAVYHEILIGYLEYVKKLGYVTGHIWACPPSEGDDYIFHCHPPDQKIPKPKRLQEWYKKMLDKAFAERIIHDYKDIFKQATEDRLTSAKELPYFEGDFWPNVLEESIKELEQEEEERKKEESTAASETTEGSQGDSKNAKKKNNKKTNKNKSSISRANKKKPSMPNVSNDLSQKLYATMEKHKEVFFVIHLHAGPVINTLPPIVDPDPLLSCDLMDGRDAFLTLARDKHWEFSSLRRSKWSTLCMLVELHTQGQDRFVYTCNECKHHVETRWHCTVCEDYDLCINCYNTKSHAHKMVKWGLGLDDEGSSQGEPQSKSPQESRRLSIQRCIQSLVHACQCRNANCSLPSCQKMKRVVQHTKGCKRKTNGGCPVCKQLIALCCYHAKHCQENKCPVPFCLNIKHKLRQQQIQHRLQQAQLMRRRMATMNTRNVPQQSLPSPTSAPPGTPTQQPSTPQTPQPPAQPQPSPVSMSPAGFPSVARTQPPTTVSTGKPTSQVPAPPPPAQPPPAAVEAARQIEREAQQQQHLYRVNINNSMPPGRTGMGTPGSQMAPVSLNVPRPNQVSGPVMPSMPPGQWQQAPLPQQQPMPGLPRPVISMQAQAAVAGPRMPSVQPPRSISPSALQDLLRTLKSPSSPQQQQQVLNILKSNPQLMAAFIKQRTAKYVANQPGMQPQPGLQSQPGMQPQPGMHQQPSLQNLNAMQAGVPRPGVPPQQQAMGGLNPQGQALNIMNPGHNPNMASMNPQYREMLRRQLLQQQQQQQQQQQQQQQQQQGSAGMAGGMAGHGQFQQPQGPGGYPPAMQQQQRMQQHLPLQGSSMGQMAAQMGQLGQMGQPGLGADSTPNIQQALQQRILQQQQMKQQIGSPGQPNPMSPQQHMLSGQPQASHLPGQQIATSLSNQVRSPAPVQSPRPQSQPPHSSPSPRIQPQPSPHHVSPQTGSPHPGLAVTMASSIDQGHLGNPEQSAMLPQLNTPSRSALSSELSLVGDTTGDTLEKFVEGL
UniProt P12956: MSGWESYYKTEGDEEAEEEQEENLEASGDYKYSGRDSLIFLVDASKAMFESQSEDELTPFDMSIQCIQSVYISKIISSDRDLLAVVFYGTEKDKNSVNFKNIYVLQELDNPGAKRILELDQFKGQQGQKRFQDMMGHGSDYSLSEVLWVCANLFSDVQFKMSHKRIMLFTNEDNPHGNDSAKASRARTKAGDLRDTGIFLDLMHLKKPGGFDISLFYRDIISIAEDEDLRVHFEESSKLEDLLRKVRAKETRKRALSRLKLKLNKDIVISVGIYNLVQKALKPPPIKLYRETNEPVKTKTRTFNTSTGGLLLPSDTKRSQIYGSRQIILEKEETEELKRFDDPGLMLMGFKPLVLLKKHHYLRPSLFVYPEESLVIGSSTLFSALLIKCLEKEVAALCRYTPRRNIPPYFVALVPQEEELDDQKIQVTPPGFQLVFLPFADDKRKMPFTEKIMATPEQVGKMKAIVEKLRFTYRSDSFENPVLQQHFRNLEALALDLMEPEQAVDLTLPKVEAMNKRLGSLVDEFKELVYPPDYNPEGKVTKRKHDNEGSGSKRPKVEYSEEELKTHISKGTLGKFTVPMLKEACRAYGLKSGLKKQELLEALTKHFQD
UniProt Q09472: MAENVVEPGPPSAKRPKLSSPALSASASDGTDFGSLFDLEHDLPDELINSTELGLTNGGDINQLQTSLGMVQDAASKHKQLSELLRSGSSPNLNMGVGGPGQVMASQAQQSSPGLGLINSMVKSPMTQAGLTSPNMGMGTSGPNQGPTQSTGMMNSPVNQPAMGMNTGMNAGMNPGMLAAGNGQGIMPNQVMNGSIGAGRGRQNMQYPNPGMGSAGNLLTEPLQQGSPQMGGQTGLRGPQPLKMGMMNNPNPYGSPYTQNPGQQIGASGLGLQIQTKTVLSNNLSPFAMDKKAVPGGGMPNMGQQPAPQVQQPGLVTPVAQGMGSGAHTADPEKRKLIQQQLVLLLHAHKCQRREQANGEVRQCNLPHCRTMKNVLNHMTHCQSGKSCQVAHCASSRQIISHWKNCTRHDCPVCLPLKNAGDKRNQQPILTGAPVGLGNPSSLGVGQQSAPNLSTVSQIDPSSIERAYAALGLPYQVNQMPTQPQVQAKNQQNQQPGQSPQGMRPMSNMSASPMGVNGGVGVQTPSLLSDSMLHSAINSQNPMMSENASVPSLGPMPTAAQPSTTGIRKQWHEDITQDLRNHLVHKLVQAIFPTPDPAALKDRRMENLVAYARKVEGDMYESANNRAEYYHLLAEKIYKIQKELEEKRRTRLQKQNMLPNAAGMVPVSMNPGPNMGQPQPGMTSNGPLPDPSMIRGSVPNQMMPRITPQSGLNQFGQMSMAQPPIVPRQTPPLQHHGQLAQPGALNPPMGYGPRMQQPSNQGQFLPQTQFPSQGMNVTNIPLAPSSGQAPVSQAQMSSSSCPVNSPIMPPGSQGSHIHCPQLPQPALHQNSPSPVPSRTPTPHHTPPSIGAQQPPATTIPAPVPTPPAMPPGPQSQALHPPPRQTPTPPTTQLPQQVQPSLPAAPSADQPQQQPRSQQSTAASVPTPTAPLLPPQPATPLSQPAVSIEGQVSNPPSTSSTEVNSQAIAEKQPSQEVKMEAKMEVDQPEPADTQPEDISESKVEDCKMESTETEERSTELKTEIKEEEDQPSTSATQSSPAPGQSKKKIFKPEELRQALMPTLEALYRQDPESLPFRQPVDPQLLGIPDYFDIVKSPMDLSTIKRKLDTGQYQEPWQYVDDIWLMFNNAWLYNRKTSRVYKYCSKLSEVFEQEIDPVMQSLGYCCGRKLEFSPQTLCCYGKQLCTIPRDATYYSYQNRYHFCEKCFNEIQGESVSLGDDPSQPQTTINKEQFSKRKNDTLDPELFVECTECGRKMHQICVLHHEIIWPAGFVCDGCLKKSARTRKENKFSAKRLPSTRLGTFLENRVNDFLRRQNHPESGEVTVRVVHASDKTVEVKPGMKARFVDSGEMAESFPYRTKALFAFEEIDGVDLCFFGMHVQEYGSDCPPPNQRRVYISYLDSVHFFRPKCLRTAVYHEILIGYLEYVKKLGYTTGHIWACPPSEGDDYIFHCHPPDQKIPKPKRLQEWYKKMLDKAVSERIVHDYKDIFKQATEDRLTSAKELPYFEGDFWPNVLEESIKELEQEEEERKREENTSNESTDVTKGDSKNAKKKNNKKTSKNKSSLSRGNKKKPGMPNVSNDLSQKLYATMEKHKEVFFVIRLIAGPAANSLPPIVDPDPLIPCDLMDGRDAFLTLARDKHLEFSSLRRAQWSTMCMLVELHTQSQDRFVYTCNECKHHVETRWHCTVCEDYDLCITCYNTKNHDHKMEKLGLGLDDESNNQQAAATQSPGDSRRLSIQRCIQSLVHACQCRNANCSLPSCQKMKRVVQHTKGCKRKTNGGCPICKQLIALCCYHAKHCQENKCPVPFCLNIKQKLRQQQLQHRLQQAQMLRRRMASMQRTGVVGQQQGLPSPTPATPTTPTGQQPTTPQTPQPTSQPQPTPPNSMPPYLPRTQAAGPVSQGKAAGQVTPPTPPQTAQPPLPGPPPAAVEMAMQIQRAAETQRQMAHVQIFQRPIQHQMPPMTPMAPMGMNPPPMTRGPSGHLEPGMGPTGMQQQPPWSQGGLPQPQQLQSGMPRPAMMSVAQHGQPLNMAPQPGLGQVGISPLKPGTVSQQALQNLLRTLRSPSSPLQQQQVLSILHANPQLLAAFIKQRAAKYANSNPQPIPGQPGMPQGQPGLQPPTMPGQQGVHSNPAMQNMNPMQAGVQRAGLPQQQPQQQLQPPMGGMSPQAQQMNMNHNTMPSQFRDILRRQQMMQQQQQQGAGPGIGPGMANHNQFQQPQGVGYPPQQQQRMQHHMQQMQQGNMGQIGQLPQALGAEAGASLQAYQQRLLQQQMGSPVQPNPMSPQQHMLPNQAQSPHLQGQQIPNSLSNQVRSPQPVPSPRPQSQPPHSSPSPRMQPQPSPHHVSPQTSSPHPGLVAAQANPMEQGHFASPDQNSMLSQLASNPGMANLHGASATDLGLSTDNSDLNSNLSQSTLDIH

Assay [1] deals with K226 acetylated polynucleotide kinase 3'-phosphatase (AcK226 PNKP), from WT-PNKP-FLAG cells (human) (UniProt Q96T60). The assay can be described thus: co-IP; IP with 10 ug rabbit polyclonal anti-AcK226 Ab (control rabbit IgG) from benzonase-treated chromatin fraction of WT-PNKP-FLAG HEK293 cells, mock or Bleo-treated; immunocomplex probed by Western blot. (In general: Immunoblotting shows a protein as a band on a membrane.)

Assay [2] deals with K142 acetylated polynucleotide kinase 3'-phosphatase (AcK142 PNKP), from WT-PNKP-FLAG cells (human) (UniProt Q96T60). Briefly: co-IP; IP with 10 ug rabbit polyclonal anti-AcK142 Ab (control rabbit IgG) from benzonase-treated chromatin fraction of WT-PNKP-FLAG HEK293 cells, mock or GO-treated; immunocomplex probed by Western blot.
The target of assay [3] is K226 acetylated polynucleotide kinase 3'-phosphatase (AcK226 PNKP), from WT-PNKP-FLAG cells (human) (UniProt Q96T60). Briefly: co-IP; IP with 10 ug rabbit polyclonal anti-AcK226 Ab (control rabbit IgG) from benzonase-treated chromatin fraction of WT-PNKP-FLAG HEK293 cells, mock or Bleo-treated; immunocomplex probed by Western blot. The source holds these as a separate data set.

Where two headings read alike, the source gives them in different places. No constants are given. Whether binding was seen depends on the method and setting. In cells and extracts the contact can be indirect. Some entries that bind do so weakly or less than the wild type.

Regarding “CREB-binding protein (CBP) (from UniProt Q92793 1-2442) (enzyme)”, in assay [1], the binding entry was “binds”.
On to Ku70 (from UniProt P12956 1-609), for which the binding entry in assay [2] and in assay [1] was “binds” throughout.
As for “p300 (from UniProt Q09472 1-2414) (enzyme)”, the binding result in assay [2] is listed as “binds”.

B1: DNA polymerase eta (Pol η) (enzyme, UniProt Q9Y253 1-713)
chain: MATGQDRVVALVDMDCFFVQVEQRQNPHLRNKPCAVVQYKSWKGGGIIAVSYEARAFGVTRSMWADDAKKLCPDLLLAQVRESRGKANLTKYREASVEVMEIMSRFAVIERASIDEAYVDLTSAVQERLQKLQGQPISADLLPSTYIEGLPQGPTTAEETVQKEGMRKQGLFQWLDSLQIDNLTSPDLQLTVGAVIVEEMRAAIERETGFQCSAGISHNKVLAKLACGLNKPNRQTLVSHGSVPQLFSQMPIRKIRSLGGKLGASVIEILGIEYMGELTQFTESQLQSHFGEKNGSWLYAMCRGIEHDPVKPRQLPKTIGCSKNFPGKTALATREQVQWWLLQLAQELEERLTKDRNDNDRVATQLVVSIRVQGDKRLSSLRRCCALTRYDAHKMSHDAFTVIKNCNTSGIQTEWSPPLTMLFLCATKFSASAPSSSTDITSFLSSDPSSLPKVPVTSSEAKTQGSGPAVTATKKATTSLESFFQKAAERQKVKEASLSSLTAPTQAPMSNSPSKPSLPFQTSQSTGTEPFFKQKSLLLKQKQLNNSSVSSPQQNPWSNCKALPNSLPTEYPGCVPVCEGVSKLEESSKATPAEMDLAHNSQSMHASSASKSVLEVTQKATPNPSLLAAEDQVPCEKCGSLVPVWDMPEHMDYHFALELQKSFLQPHSSNPQVVSAVSHQGKRNPKSPLACTNKRPRPEGMQTLESFFKPLTH
As to B1, the binding entry in assay [3] was “binds”.
